Results are given in words; binding and its absence hold for the method and conditions named. In cells and extracts the contact can be indirect. Some results given as binding are weak or reduced against the parent protein; the word gives no strength. Where a sequence is shown, tags or fusion partners need not be part of it.
How the values were obtained:
[1] = molecular target: T1, DRC4, full length, HA- or FLAG-tagged (pCAG) (mouse) (UniProt Q60779); assay: co-IP; HEK293T cells transfected with HA/FLAG plasmids, RIPA lysate, protein A/G magnetic beads with HA antibody overnight at 4 °C, five washes with RIPA
T1 sequence: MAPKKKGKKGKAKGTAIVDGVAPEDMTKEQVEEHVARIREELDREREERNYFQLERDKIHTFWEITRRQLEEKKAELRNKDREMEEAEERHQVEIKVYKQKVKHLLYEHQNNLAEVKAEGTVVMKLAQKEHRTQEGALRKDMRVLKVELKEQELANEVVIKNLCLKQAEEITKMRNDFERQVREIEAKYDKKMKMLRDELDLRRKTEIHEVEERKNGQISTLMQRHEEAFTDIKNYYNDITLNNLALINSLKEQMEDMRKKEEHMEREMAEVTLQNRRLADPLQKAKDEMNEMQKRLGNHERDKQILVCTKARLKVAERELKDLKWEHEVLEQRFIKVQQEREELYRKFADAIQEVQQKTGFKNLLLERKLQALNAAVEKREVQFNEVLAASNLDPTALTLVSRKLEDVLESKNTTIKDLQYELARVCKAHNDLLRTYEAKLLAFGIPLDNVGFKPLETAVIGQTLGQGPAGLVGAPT

[2] = molecular target: T2, truncated DRC4, amino acids 1-258 deleted (mouse) (UniProt Q60779); assay: as above
T2 sequence: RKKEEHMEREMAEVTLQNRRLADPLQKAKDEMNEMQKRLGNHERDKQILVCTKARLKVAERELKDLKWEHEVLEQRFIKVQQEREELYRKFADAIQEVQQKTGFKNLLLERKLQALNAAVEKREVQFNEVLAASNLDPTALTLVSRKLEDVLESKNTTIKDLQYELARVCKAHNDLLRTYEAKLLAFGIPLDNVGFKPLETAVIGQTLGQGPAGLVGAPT

B1: AKAP3, HA- or FLAG-tagged (pCAG) (protein, UniProt O88987 1-864)
chain: MADRVDWLQSQSGVCKVGVYSPGDNQHQDWKMDTSTDPVRVLSWLRKDLEKSTAGFQDSRFKPGESSFVEEVAYPVDQRKGFCVDYYNTTNKGSPGRLHFEMSHKENPSQGLISHVGNGGSIDEVSFYANRLTNLVIAMARKEINEKIHGAENKCVHQSLYMGDEPTPHKSLSTVASELVNETVTACSKNISSDKAPGSGDRASGSSQAPGLRYTSTLKIKESTKEGKCPDDKPGTKKSFFYKEVFESRNAGDAKEGGRSLPGDQKLFRTSPDNRPDDFSNSISQGIMTYANSVVSDMMVSIMKTLKIQVKDTTIATILLKKVLMKHAKEVVSDLIDSFMKNLHGVTGSLMTDTDFVSAVKRSFFSHGSQKATDIMDAMLGKLYNVMFAKKFPENIRRARDKSESYSLISTKSRAGDPKLSNLNFAMKSESKLKENLFSTCKLEKEKTCAETLGEHIIKEGLHMWHKSQQKSPGLERAAKLGNAPQEVSFECPDPCEANPPHQPQPPENFANFMCDSDSWAKDLIVSALLLIQYHLAQGGKMDAQSFLEAAASTNFPTNKPPPPSPVVQDECKLKSPPHKICDQEQTEKKDLMSVIFNFIRNLLSETIFKSSRNCESNVHEQNTQEEEIHPCERPKTPCERPITPPAPKFCEDEEATGGALSGLTKMVANQLDNCMNGQMVEHLMDSVMKLCLIIAKSCDSPLSELGEEKCGDASRPNSAFPDNLYECLPVKGTGTAEALLQNAYLTIHNELRGLSGQPPEGCEIPKVIVSNHNLADTVQNKQLQAVLQWVAASELNVPILYFAGDDEGIQEKLLQLSATAVEKGRSVGEVLQSVLRYEKERQLDEAVGNVTRLQLLDWLMANL
binding [1]: binds
binding [2]: no binding
